Measured values as given in paper PMC9915899.
These are yes or no findings as the source states them, for the method shown. In cells and extracts the contact can be indirect. Some binding calls cover weakened binding; strength is not graded here.

The chains behind the UniProt entries cited, without tags or fusion partners.
UniProt P34152: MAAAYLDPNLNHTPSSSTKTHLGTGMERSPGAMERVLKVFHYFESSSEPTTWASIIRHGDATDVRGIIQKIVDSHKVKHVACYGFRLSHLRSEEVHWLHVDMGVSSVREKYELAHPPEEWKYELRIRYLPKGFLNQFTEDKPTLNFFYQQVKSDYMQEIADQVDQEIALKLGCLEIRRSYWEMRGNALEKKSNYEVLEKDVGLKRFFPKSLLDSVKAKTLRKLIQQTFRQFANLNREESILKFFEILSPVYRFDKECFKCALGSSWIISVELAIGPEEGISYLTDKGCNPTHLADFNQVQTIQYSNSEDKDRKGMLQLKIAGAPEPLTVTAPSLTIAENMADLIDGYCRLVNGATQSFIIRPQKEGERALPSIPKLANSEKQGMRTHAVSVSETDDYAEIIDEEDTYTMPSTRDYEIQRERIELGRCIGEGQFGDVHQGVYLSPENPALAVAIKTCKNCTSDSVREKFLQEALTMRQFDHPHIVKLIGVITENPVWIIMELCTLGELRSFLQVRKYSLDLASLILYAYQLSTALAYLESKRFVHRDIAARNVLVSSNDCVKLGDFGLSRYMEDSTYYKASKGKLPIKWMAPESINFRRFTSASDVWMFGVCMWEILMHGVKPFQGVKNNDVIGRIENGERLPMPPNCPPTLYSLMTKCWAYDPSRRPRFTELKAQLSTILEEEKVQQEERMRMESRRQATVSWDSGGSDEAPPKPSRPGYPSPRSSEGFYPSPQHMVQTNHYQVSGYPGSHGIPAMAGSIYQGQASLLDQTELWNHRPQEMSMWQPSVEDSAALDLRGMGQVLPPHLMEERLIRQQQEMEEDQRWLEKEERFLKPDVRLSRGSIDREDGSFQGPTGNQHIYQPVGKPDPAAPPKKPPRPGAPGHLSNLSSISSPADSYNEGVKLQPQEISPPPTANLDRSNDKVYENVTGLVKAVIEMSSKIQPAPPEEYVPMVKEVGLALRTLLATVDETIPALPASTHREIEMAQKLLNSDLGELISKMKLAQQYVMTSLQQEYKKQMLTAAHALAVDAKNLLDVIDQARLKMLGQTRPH
UniProt Q05397: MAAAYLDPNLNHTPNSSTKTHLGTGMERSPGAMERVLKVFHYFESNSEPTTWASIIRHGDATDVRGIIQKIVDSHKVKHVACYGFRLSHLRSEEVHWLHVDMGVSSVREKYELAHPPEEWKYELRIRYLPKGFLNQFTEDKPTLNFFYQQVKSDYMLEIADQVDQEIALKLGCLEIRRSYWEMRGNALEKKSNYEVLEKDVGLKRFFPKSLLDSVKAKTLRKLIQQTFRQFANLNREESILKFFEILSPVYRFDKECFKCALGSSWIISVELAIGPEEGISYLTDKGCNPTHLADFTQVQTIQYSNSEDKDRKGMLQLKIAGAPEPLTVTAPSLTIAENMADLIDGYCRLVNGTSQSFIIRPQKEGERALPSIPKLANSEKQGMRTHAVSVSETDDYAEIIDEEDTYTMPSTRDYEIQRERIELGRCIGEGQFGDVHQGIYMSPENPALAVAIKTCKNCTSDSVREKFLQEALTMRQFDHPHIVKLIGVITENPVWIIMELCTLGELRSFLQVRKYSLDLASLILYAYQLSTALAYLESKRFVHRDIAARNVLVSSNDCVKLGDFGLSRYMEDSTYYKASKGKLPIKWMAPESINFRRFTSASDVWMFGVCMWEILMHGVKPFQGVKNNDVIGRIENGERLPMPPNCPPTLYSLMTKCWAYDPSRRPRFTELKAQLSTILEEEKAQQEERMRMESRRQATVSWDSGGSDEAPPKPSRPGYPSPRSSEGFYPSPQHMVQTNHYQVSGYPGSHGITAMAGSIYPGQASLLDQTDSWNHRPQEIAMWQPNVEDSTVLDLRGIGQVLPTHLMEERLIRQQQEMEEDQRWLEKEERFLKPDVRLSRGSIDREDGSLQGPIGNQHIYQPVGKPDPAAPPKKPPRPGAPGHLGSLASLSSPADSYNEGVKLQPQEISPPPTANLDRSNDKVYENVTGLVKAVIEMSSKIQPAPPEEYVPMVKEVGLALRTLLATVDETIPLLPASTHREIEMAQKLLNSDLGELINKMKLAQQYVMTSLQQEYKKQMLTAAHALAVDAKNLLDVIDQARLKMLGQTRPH

Columns and labels:
[1] = target: Epidermal growth factor receptor (Egfr), mouse (mouse (endogenous in cecal mucosa)) (UniProt Q01279); test: co-IP; cecal mucosa lysates of 6-week-old mice (control, BC, KC; BC also treated with the EGFR inhibitor erlotinib), pre-cleared with Protein G-sepharose, incubated with anti-EGFR antibody conjugated to agarose at 4°C for 4 hr; washed with 20 mM Tris-HCl pH 7.5, 150 mM NaCl, 1 mM EDTA, 1% NP40, 10% glycerol; immunoblotting
[2] = target: Epidermal growth factor receptor (EGFR), human (human (endogenous in HT-29)) (UniProt P00533); test: co-IP; HT-29 cell lysates; cells treated with DMSO, PF-562271 (5 μM) or erlotinib (10 μM) for one hour before harvest; same immunoprecipitation protocol as for tissue lysates; anti-HA or anti-Flag beads as controls

Row | Substance | binding [1] | binding [2]
1 | Focal adhesion kinase (Fak), mouse (from UniProt P34152 1-1052) | binds | 
2 | Focal adhesion kinase (FAK), human (from UniProt Q05397 1-1052) |  | binds
